From the supplement of paper PMC3334620
In all, about 33,000 sequences were measured (“E-score (-0.5 to 0.5)”: median about -0.016, highest 2% from about 0.3 on). This is one part of the list.

What follows are sequences tested against T1, Yer184c (UniProt P39961) (assay: PBM E-score (8-mer binding enrichment) (E-score (-0.5 to 0.5)); higher = stronger / more preferred TF binding). Details: protein concentration: 100 nM; construct: GST-full length.
T1 sequence: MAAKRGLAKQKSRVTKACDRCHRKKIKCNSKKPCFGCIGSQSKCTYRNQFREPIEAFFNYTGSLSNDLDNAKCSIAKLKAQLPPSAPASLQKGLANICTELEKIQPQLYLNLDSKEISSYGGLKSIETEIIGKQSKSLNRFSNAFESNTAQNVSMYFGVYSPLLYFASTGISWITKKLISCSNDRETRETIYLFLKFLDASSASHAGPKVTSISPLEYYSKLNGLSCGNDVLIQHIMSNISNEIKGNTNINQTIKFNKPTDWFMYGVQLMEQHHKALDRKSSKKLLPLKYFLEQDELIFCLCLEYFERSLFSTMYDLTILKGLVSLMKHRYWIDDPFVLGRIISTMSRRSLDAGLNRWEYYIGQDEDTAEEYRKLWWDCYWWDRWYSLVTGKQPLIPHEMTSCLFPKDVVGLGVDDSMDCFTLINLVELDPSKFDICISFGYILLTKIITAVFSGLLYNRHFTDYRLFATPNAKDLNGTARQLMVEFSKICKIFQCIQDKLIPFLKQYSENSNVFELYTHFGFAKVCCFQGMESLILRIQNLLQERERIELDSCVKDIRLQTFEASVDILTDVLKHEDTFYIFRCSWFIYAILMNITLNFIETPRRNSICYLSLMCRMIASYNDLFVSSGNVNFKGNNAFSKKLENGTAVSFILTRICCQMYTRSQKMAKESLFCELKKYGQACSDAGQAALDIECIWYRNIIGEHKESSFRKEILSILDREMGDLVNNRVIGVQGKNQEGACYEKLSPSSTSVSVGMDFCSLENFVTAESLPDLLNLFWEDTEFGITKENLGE
Method in brief: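 Yeast transcription factors carrying a GST tag, as full-length proteins or DNA-binding domains, were produced by PURExpress in vitro transcription/translation. About 100-200 nM protein was applied to universal all-10-mer Agilent arrays, double-stranded by primer extension on fresh or once-stripped slides. Bound protein was detected with fluorescent anti-GST, and scans were normalised with masliner. The Universal PBM Analysis Suite gave each ungapped eight-base word, pooled with its reverse complement, an E-score, a modified Wilcoxon-Mann-Whitney statistic.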

Sequence	PBM E-score
AGTCGCCC	-0.265
TGATCCAA	0.0844
ATTGCGTA	-0.0982
AAGTGGCC	-0.219
AAGTACTA	0.125
ATAGCTAT	0.229
CATCCGCG	0.0676
AATGACGT	-0.101
CGTAATGA	-0.0865
ATAAGGAT	0.0597
ACAGCTTA	-0.107
CTTGAAGA	-0.0387
ACTATACA	0.0199
CGAGGGTA	-0.14
TAATATGA	0.131
AGACCGTG	-0.0237
ACGTGAGC	-0.186
AGCTCGCC	-0.0877
GCATCACA	0.093
GTCTTGCA	0.0873
AATCTACT	0.0967
GCATCGAA	-0.0557
GCCTACAC	-0.202
CTGCGGGA	-0.0974
ATTCGTGG	-0.0833

Sequence	PBM E-score
ACGCGTCA	-0.0376
GTCTGACA	-0.00408
TAACATCA	0.103
ACCCAGGG	-0.213
GAATCCGC	0.0481
TAGGACGA	-0.119
CCGACCGC	-0.114
CGCAGATC	-0.00778
CTGATACA	-0.0209
CGACTACG	-0.0372
AGCCACAC	-0.127
AAACTCAT	0.235
CGGCGCCG	0.443
TAAACTCA	0.103
CGAGTCAA	0.0285
AAGCCTAA	0.0316
ATGCATGA	0.0229
CTAGACTC	-0.252
ATACCGTC	0.0873
AAGTCTCC	-0.101
CATGAGCA	-0.042
CAATTGTG	-0.0298
TGCGTGAA	0.158
CGAAACAG	-0.0145
AGGTGCAT	-0.0459

Sequence	PBM E-score
CAGCTGTC	0.0174
GCTACCAC	-0.176
AAGGGGTA	-0.351
AACACCGA	0.0806
AACTCTCC	-0.0166
AGACATGC	-0.192
ACCTCGCG	-0.155
CTCTTTGA	0.0431
ATCAATTG	0.136
GCCACCCA	-0.202
ATGAAGGA	0.147
CCGTTGCA	-0.0784
ACGTGCAG	-0.239
GTTATGAA	0.119
CAATTGAA	-0.135
CGCTGAAG	-0.0407
ACCTACCG	-0.0673
AACTCCTT	-0.0293
GAGTCATC	-0.131
CTGGATGC	-0.204
CCCACACA	-0.213
ACGACCTG	-0.256
TAAGCCGA	0.369
AAGTGAGC	-0.00465
GGGGATGA	-0.264

Sequence	PBM E-score
GTAAGCTA	0.0243
ACTTCTGA	-0.174
CAAACAAC	0.274
ATAAACCC	0.0901
ACTACCTC	-0.0352
CCTGATGA	0.0301
GACAACGC	0.0521
AAGAATCG	0.168
ACTTCGTA	0.0175
AGCGTCAG	-0.234
ACTTACCC	-0.0502
AAGCTAAA	-0.0461
CAGTTGCG	0.0601
ACAGTTTG	-0.11
CGGTCACC	0.076
ATTTTGAG	0.143
AGCGGGCA	-0.202
ACTGTACG	-0.218
CAAATGGA	0.0465
CAAGCCAG	-0.22
AGCCTATC	-0.11
CCGTACAA	0.125
CGAGCCAG	0.145
ACACTGGT	-0.258
ATAACGTG	-0.139

Sequence	PBM E-score
AATCCACC	-0.157
CACTAGCC	0.125
ATGTGCAA	-0.0551
ATATGAAG	-0.0732
CACAAAAA	0.223
AAAGTTAG	0.154
ATGTCGCC	-0.197
GCTGGTTA	0.0291
CATACCAG	-0.15
AACAGCTC	0.0147
GCGCCCCA	-0.12
AGGAAATG	0.0726
TAAGTAAA	0.0677
AACCGCCT	0.0736
ACGATTAT	0.0164
AGCAGGTG	-0.0507
CAAAGAAA	0.178
GACTGACA	0.058
GACTCTCC	-0.118
AAATCCGT	0.181
ATTCGGTG	0.155
AGAGTCCA	-0.161
AAGCTACT	0.00012
CTACCGGC	0.0792
ACCTTGCG	-0.0337

Given field by field: entries from further up.
AAGTGAGC
  PBM E-score: -0.00465
GGGGATGA
  PBM E-score: -0.264
GTAAGCTA
  PBM E-score: 0.0243
ACTTCTGA
  PBM E-score: -0.174

Shown field by field: entries from further up.
CAATTGAA
  PBM E-score: -0.135
GACAACGC
  PBM E-score: 0.0521
CATACCAG
  PBM E-score: -0.15
GACTCTCC
  PBM E-score: -0.118

Following part.

Sequence	PBM E-score
GCTCCATA	-0.155
CGTGCTCC	0.079
ATTATCGG	0.224
GGGAGTCA	-0.168
ACCCCGGG	0.263
GACAGAAC	-0.00544
CTGCAAGA	-0.0068
ATAACCAT	-0.13
ACCCCATG	-0.12
AAGACCGA	0.228
AGCGCTAT	0.0285
CGTTCTGA	-0.0441
GCAGTTCA	-0.0795
AGAACTCG	0.0462
CAGGTTTC	-0.0188
CCGGGTTA	0.25
AGTCACGA	-0.0213
CGTTACTA	-0.0021
CCGGAGGC	0.139
CTCTCACA	-0.0505
GTGTGCCA	-0.11
CTGTGAGA	-0.0755
AAGCGCTC	0.0112
ATTCCTAC	-0.119
ATTATCCG	0.36

Retrieved one by one from the entries so far:
Sequence	PBM E-score
CTGCAAGA	-0.0068
GCTCCATA	-0.155
GTGTGCCA	-0.11
ATTATCCG	0.36
CGTGCTCC	0.079

Additional entries:

Sequence	PBM E-score
AAGTCAAT	-0.00529
AGTATTTG	-0.0716
GATGACGC	-0.219
AGAGCAAC	-0.0202
CGCATGGC	-0.0253
GAAAGACA	0.0427
CGGCAATC	0.291
CTCATTCC	0.0371
ACATACCA	-0.12
GGTCGGGA	0.0925
ATTGCGGG	0.0878
AACGTTAT	0.00561
CCGGATCG	0.352
ACGTAACT	-0.229
TAATTGCA	0.125
GTCTTGTA	-0.118
ATCTGGCC	-0.166
ATACCGCC	0.102
GTCTAGAC	-0.31
CCTCCCAC	-0.166
TAATGGTA	0.0249
TAGTAACA	0.167
AAATTGTA	0.154
CCCCAAGA	-0.15
ACGAGTTA	0.0904

Sequence	PBM E-score
GCAGCTTA	-0.0551
CGCTATTC	0.12
ATTGTATG	0.0232
AATGCCTC	-0.22
CAGCCGTC	0.151
TCAAACGA	0.116
GACATATA	0.219
AGGCCCCT	-0.392
CATTTTAC	0.109
ATTCATTC	0.127
TACTGCGA	-0.129
CACGGACA	0.228
GAGACTTA	-0.0781
AGACATCC	-0.103
AGCCATAA	-0.0029
CTCCATGA	0.00856
AAGCGTAA	-0.0217
CTTATGCA	0.0296
GTAAGTAC	0.0583
AGGTTCTC	-0.0203
CTTCGGCA	0.333
ACCAAATC	-0.0394
AGATTACC	0.0667
CCACCCAC	-0.126
AGTGAGGC	-0.0996

Sequence	PBM E-score
GCCTGCTA	-0.0406
AGCACGAA	0.176
ACTCTTCC	0.0111
CGATGGAA	0.0585
AACACTGG	-0.0633
ATTCATCA	-0.0169
ACAGCCAG	0.00409
GAAGACCA	0.0223
ATAAGAGC	0.055
GAGTAGAA	-0.00024
ACGCGGCC	-0.0466
CGGAAGGC	0.0723
AGGTAGTA	-0.00581
CAGCCCGA	-0.16
ACGCAGCG	-0.153
GTATGTCA	0.00836
GAGCAGCC	-0.136
CCTGCTAA	-0.119
GCGCACCA	-0.0536
